PMC8537947 (Pharmaceuticals, 2021)

Experiment: peptide synthesis
Conditions: whole synthesis

## NOTA-PEG2-c[CPGRVNleHGLHLGDDEGPC]
  purity (crude or final not stated): 97%
